This assay can be described thus: qHTS Assay for Lipid Storage Modulators in Drosophila S3 Cells.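 For cell number change: cells counted by Cell Tracker Red CMTPX staining in the red channel.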 To be noted: BODIPY lipid droplet fluorescence, 18-24 h; for cell number change: measured here: cell count max response, cells fed with added oleic acid. In a few lines:
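Drosophila S3 cells loaded with oleic acid (400 uM, as added) and compounds at several concentrations; lipid droplets imaged by 488-nm laser-scanning cytometry, 500–530 nm intensity and object ratio to cell channel. Percent activity normalized to 20 uM Triacsin C.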

[1] abbreviates: measured here: cell number channel AC50, cells fed with added oleic acid.
Setting [2] is: measured here: lipid fluorescence (Fed channel) AC50, cells fed with added oleic acid.

The list shows a part of the results. Further columns of the screen follow, without active or inactive calls. Compounds called inactive in the main read-out are mostly missing here. Words in brackets tell the shape of the fitted curve; partial curves, single points and poor fits give uncertain potencies.

With `Cc1ccc(C(=O)OCC(=O)N2CCC(Cc3ccccc3)CC2)cc1N`, the cell number change came out at 11.6%. Also, under setting [1], the AC50 is 7.31 µM [rising, partial curve, poor fit].
Take `CCOc1cc(/C=N/NC(N)=O)cc(Br)c1OCc1ccccc1F`: the cell number change is -4%.
As to `Cc1ccc(-c2nnc(Nc3ccc(CC(N)=O)cc3)c3ccccc23)cc1`, the cell number change was -8.47%. For the same compound, under setting [2], the half-maximal activity concentration (AC50) was 20.6 µM [falling, single point].
For the compound `CC(=O)c1cccc(NC(=O)COC(=O)c2cccs2)c1`, the cell number change was 41.7%. Further, the AC50 under setting [1] was 29.1 µM [rising, single point].
With `O=[N+]([O-])c1cccc(/C=C/c2ccc3cccc(O)c3n2)c1`, the cell number change is -19.7%. For the same compound, the half-maximal activity concentration (AC50) under setting [2] was 32.6 µM [falling, single point].
For the compound `COc1ccc(S(=O)(=O)N2CCCCCC2)cc1N`, the cell number change stood at 10.9%.
`COC(=O)c1ccc(C2NC(=O)c3ccccc3O2)cc1` (stereo unspecified): the cell number change came out at 16.9%.
For `O=C1C=C(NCc2ccccc2)c2ccccc2C1=O`, the cell number change is -46.1%. Also, the AC50 under setting [1] is 20.6 µM [falling, single point]. The AC50 under setting [2] was 11.6 µM [falling, partial curve, poor fit].
In the case of `Cc1ccc(-n2cnnn2)c(S(=O)(=O)N2CCOCC2)c1`, the cell number change was -12.9%. Further, the half-maximal activity concentration (AC50) under setting [2] was 5.8 µM [falling, single point].
Take `O=C(NCCCN1CCOCC1)c1cc2cc(Br)ccc2oc1=O`: the cell number change turned out to be 8.04%. Further, the AC50 under setting [2] was 6.51 µM [falling, partial curve, poor fit].
Regarding `c1cnc2ccc(C(c3nnnn3C3CCCC3)N3CCSCC3)cc2c1` (stereo unspecified), the cell number change was -2.94%. Under setting [2], the AC50 was 0.00517 µM [falling, full curve, poor fit].
For the compound `O=C(CSc1nnc(N2CCCC2)n1-c1ccccc1Cl)N1CCN(c2ccccn2)CC1`, the cell number change stood at 3.2%. The AC50 under setting [2] was 23.1 µM [rising, single point].
In the case of `Cc1ccccc1C(=O)Nc1ccc(N2CCOCC2)nc1`, the cell number change was -31.6%. In addition, the half-maximal activity concentration (AC50) under setting [1] was 32.6 µM [falling, single point].
Take `COc1ccc(NS(=O)(=O)c2ccc3c(c2)[C@H]2C=CC[C@H]2[C@@H](c2ccc(C(=O)O)cc2)N3)cc1`: the cell number change is -19.7%. Under setting [2], the half-maximal activity concentration (AC50) is 0.501 µM [rising, partial curve, poor fit].
With `Cc1ccccc1Nc1nc(CSc2nnc(-c3ccoc3C)n2C)cs1`, the cell number change is -2.2%. Moreover, under setting [2], the AC50 is 0.116 µM [rising, full curve].
As to `CCOc1ccc2nc(Cl)c(CN(C(=O)c3cnccn3)C3CCCC3)cc2c1`, the cell number change is -5.85%.
For `Cc1c(C)n(CC(O)CN2C(=O)c3ccccc3S2(=O)=O)c2ccccc12` (stereo unspecified), the cell number change was found to be 45.7%. The concentration at half-maximal activity (AC50) under setting [1] is 16.4 µM [rising, single point].
With `Cc1ccc(N(C)C(=O)c2ccc3c(Cl)c4c(nc3c2)CCC4)cc1C`, the cell number change is -16.7%. Also, the half-maximal activity concentration (AC50) under setting [1] was 0.58 µM [falling, full curve, poor fit]. For the same compound, the concentration at half-maximal activity (AC50) under setting [2] was 0.651 µM [falling, full curve, poor fit].
Regarding `C=CCc1cccc(CNc2nc3ccccc3n2C(C)C)c1O`, the cell number change is -43.9%. Also, the AC50 under setting [1] is 32.6 µM [falling, single point]. Further, the concentration at half-maximal activity (AC50) under setting [2] is 14.6 µM [falling, partial curve].
On to `O=C(COC(=O)c1nc(Cl)ccc1Cl)Nc1ccc2c(c1)OCO2`, for which the cell number change was determined as 4.92%.
For the compound `COc1cc(NC(=O)CCn2c(=O)oc3ccccc32)cc(OC)c1OC`, the cell number change was found to be 7.94%. Moreover, the concentration at half-maximal activity (AC50) under setting [2] is 0.58 µM [rising, single point].
For the compound `O=C(OCn1ncc(Br)c(Br)c1=O)c1ccc(F)cc1`, the cell number change was -64.3%. For the same compound, the AC50 under setting [1] was 18.4 µM [falling, single point]. Further, the AC50 under setting [2] was 29.1 µM [falling, single point].
For `Cc1noc(C)c1C(=O)NC(C)c1ccc(Cl)cc1Cl` (stereo unspecified), the cell number change was 6.72%. For the same compound, under setting [1], the AC50 is 0.00517 µM [rising, full curve, poor fit]. Besides, the AC50 under setting [2] is 0.00461 µM [rising, full curve, poor fit].
Turning to `O=[N+]([O-])c1cccc(N/N=C/c2cccc(O)c2O)c1`, the cell number change was -3.53%. For the same compound, the AC50 under setting [1] is 6.51 µM [falling, single point]. Also, the AC50 under setting [2] was 6.51 µM [falling, single point].
As to `CCc1cc2c(-c3ccccc3)cc(=O)oc2cc1OCC(C)=O`, the AC50 under setting [2] was 8.2 µM [falling, single point].
For the compound `CCC1(c2ccccc2)NC(=O)N(CC(=O)NNC(=O)c2ccc(F)cc2)C1=O` (stereo unspecified), the cell number change was 100%. For the same compound, the concentration at half-maximal activity (AC50) under setting [1] is 5.8 µM [falling, partial curve, poor fit].
Consider `COc1ccc(NC(=O)C2OCCc3ccccc32)c(OC)c1` (stereo unspecified), for which the cell number change was 5.66%. Also, under setting [2], the concentration at half-maximal activity (AC50) was 0.58 µM [rising, partial curve].
For `Cc1cc(OC(=O)c2ccccc2Br)cc(=O)n1C`, the cell number change is -14.6%. Besides, under setting [2], the AC50 is 6.51 µM [rising, single point].
Take `CC1(C)CC(=O)C(CC2=C(N)CC(C)(C)CC2=O)=C(N)C1`: the cell number change worked out at 22.7%. Besides, the AC50 under setting [1] is 3.26 µM [rising, full curve, poor fit].
Turning to `O=C1CC(c2ccc3c(c2)OCO3)c2cc3c(cc2N1)OCO3` (stereo unspecified), the cell number change was -25.4%. The concentration at half-maximal activity (AC50) under setting [1] was 2.91 µM [falling, full curve, poor fit]. Moreover, the AC50 under setting [2] was 2.91 µM [rising, partial curve].
Turning to `Cc1cccc(C(=O)Nc2ccccc2-c2nnn(CC(=O)Nc3ccc4c(c3)OCCO4)n2)c1`, the cell number change was -12.2%.
With `CS(=O)(=O)N(Cc1ccccc1)c1ccc(C(=O)NCc2cccnc2)cc1`, the AC50 under setting [2] was 0.731 µM [rising, single point].
Regarding `Oc1[nH]c(=S)sc1/C=C1\C(c2ccccc2)=Nc2ccccc21`, the cell number change stood at 58.6%. Moreover, under setting [1], the AC50 is 5.8 µM [rising, partial curve]. Further, the concentration at half-maximal activity (AC50) under setting [2] is 10.3 µM [rising, partial curve].
Turning to `COc1ccc(OCC(O)CNC(=O)c2ccc(OC)cc2)cc1` (stereo unspecified), the cell number change is -35.2%.
`O=C1CCc2cc(NS(=O)(=O)c3ccc([N+](=O)[O-])cc3)cc3c2N1CCC3`: the cell number change came to 35.4%. For the same compound, the half-maximal activity concentration (AC50) under setting [1] is 7.31 µM [rising, partial curve].
For `Nc1nonc1-c1nc2ccccc2n1Cc1ccccc1`, the cell number change was determined as 130%. In addition, the concentration at half-maximal activity (AC50) under setting [1] was 4.11 µM [rising, full curve]. Moreover, the concentration at half-maximal activity (AC50) under setting [2] is 10.3 µM [rising, partial curve].
Take `CC(C)CN(Cc1cc(=O)oc2cc(-c3ccccc3)c(O)cc12)CC(C)C`: the cell number change was -60.3%. The AC50 under setting [1] was 29.1 µM [falling, single point].
As for `O=C(CSc1nnc(Cn2nnc3ccccc32)o1)N(Cc1ccc(Cl)cc1)c1ccccc1`, the cell number change is -22.2%. The AC50 under setting [2] is 2.91 µM [rising, partial curve].

Source of the values: PubChem BioAssay AID2685 (National Center for Advancing Translational Sciences (NCATS), 2010).
